Assay results from PubChem BioAssay AID1347076 (National Center for Advancing Translational Sciences (NCATS), 2019).
Among all 400,000 compounds or so, about 13,000 (3.2%) were called active. The inconclusive results got no clear call from the source; some entries with a clear call stand among them for comparison. Calls come from the whole dose curve; as a rule, active = well fitted cell-killing curve with a large enough effect; inconclusive = small, poorly fitted or top-dose-only effect, or effect the other way; inactive = flat fitted curve, though single readings scatter. A potency beside an inconclusive call is a rough fit, not a confirmed value.

experiment: qHTS assay for MDR1-selective chemotherapeutics: Primary screen using the drug-selected MDR subline cells KB-V1; details: KB-V1 MDR cells viability, CellTiter-Glo, 72 h; activity change, negative = cytotoxicity: at 46.1 µM (top of the series); note: nearly all actives have a fitted effect of over 60% in size
Procedure, shortened: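 KB-V1 MDR subline cells in DMEM (phenol-red free, 10% FBS) exposed to compounds in qHTS concentration series for 72 h at 37 degrees C. Viability read by CellTiter-Glo luminescence; concentration-effect curves fitted after normalization and correction.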
% is set by controls: 0 for no effect and ±100 for the full control effect; potency is the fitted concentration of half-maximal effect.

Compound	Potency	activity change, negative = cytotoxicity
O=C(N/N=C/c1ccc(Sc2ccccn2)o1)c1cc2ccccc2cc1O	inconclusive: 18.4 µM [cytotoxic, single point]	
CCOc1ccc2nc(N(CCN(C)C)C(=O)c3cc4ccccc4cc3OC)sc2c1	inconclusive: 29.1 µM [cytotoxic, single point]	
NCC(c1ccccc1)c1c[nH]c2ccccc12 (stereo unspecified)		inactive: 16.8%
Cc1cc(OCC(=O)N2CCN(c3ccccc3)CC2)c2c(C)c(C)c(=O)oc2c1		inactive: 0%
CC(C)c1ccc(OCc2ccc(C(=O)N3CCN(c4ccccn4)CC3)cc2)cc1	inconclusive: 8.2 µM [cytotoxic, partial curve, poor fit]	
COc1ccc2sc(-c3ccc(N(C)C)cc3)c(C#CCCO)c2c1	inconclusive: 18.4 µM [cytotoxic, single point]	
O=C(CN1C(=O)CCSc2ccccc21)Nc1ccc2c(c1)OCCO2	active: 13 µM	
C=CCn1c(SCC(=O)Nc2cc3oc4ccccc4c3cc2OC)nnc1-c1cnccn1		inactive: -17.4%
Cc1cccc(NC(=O)C2CCN(S(=O)(=O)c3ccc4c(c3)OCCCO4)CC2)n1	inconclusive: 4.61 µM [cytotoxic, partial curve]	
O=C(Nc1ccc2c(c1)OCCO2)c1[nH]c(C(F)(F)F)nc1-c1ccccc1	inconclusive: 16.4 µM [cytotoxic, single point]	
C[C@@H]1CN([C@@H](C)CO)C(=O)c2ccccc2-c2ccccc2CO[C@@H]1CN(C)S(=O)(=O)c1ccc(C(F)(F)F)cc1	active: 16.4 µM	
COc1cccc(C(=O)NCCS(=O)(=O)N(C)Cc2ccccc2)c1	active: 18.4 µM	
CC(=O)Nc1cccc(C(=O)Nc2ccccc2N2CCOCC2)c1	active: 14.6 µM	
C#CCSc1nnc(-c2sc(-c3ccccc3)nc2C)n1C	inconclusive: 18.4 µM [cytotoxic, single point]	
CC1=C(C(=O)Nc2cc(Cl)ccc2C)C(c2sccc2C)n2ncnc2N1 (stereo unspecified)	inconclusive: 1.84 µM [rising, full curve, poor fit]	
Cc1[nH]c(-c2ccc(F)cc2)cc1C(=O)N1CCN(c2cccc(Cl)c2)CC1	inconclusive: 0.0065 µM [rising, full curve]	
CSc1cccc(NC(=S)N(CCCN2CCCC2)Cc2cccs2)c1	inconclusive: 7.31 µM [cytotoxic, partial curve]	
CCc1nc2ccc(C(=O)NCC3CCCCC3)cn2c1N(C)Cc1ccc(OC)cc1	inconclusive: 29.1 µM [cytotoxic, single point]	
COc1ccc(NC(=O)c2sc(NC(=O)COc3ccccc3)nc2C)cc1	inconclusive: 20.6 µM [cytotoxic, single point]	
COc1ccc(C(=O)/C=C/c2cn(CN3CCN(C)CC3)c3ccccc23)cc1		inactive: -12.3%
CC1CCc2c(sc3ncn4c(SCC(=O)NCc5ccco5)nnc4c23)C1 (stereo unspecified)		inactive: 19.1%
O=C(CSc1cn(CCNC(=O)c2cccc(C(F)(F)F)c2)c2ccccc12)Nc1ccc2c(c1)OCCO2		inactive: -17.7%
C=CCNC(=S)N/N=C(\C)c1cccc(OC)c1	active: 23.1 µM	
COC(=O)Cn1c(=NC(=O)CCS(=O)(=O)c2ccccc2)sc2c(OC)ccc(OC)c21		inactive: -1%

Compound	Potency	activity change, negative = cytotoxicity
COc1cccc(NC(=O)C2(C)CCN2C(=O)CCC2CCCC2)c1 (stereo unspecified)		inactive: -2.07%
COc1ccc(C(=O)Nc2ccc3nc(SCC(=O)N(C)c4ccccc4)sc3c2)cc1	inconclusive: 29.1 µM [cytotoxic, single point]	
CC(C)c1ccccc1NC(=O)CNCCc1ccc(C(F)(F)F)cc1	inconclusive: 23.1 µM [cytotoxic, partial curve]	
O=C(CCN1C(=O)c2ccccc2S1(=O)=O)N1CCN(c2ccc(F)cc2)CC1		inactive: -1.32%
Cc1nonc1C(=O)N1CCCC(Nc2ccc(C(C)C)cc2)C1 (stereo unspecified)	inconclusive: 29.1 µM [rising, single point]	
O=C(CNC(=O)c1ccco1)Nc1ccc(F)c(Cl)c1	inconclusive: 11.6 µM [rising, partial curve]	
CCCN(CC(=O)Nc1ccccc1C)C(=O)CCNC(=O)c1ccccc1Cl	inconclusive: 29.1 µM [cytotoxic, single point]	
O=C(O)C1CCCCC1C(=O)Nc1cccc2ccccc12 (stereo unspecified)		inactive: 0%
O=C(CN1C(=O)C2(SCC(=O)N2c2cccc(Cl)c2)c2ccccc21)NCc1ccccc1 (stereo unspecified)	inconclusive: 8.2 µM [cytotoxic, partial curve, poor fit]	
O=C1CC(N2CCC(O)(c3ccc(Br)cc3)CC2)C(=O)N1c1ccc(Cl)cc1 (stereo unspecified)	inconclusive: 18.4 µM [cytotoxic, partial curve, poor fit]	
COc1cccc(C(=O)n2c(SC)nc3cc4c(cc32)OCCO4)c1	inconclusive: 32.6 µM [cytotoxic, partial curve, poor fit]	
CC(C)(C)c1ccc(/C=C2\SC(=O)N(CCNC(=O)c3cccc(S(=O)(=O)N4CCOCC4)c3)C2=O)cc1	inconclusive: 20.6 µM [cytotoxic, partial curve, poor fit]	
CCC1CCCCN1C(=O)CSc1nc(N)c(NC(=O)c2ccco2)c(=O)[nH]1 (stereo unspecified)		inactive: -4.59%
Cc1cccc(N(Cc2ccccc2)C(=O)c2ccc(S(C)(=O)=O)cc2)c1	inconclusive: 5.17 µM [cytotoxic, full curve, poor fit]	
COc1cc(CN2CCN(Cc3ccc([N+](=O)[O-])cc3)CC2)c([N+](=O)[O-])cc1OC		inactive: -21%
Cc1cc(Cl)ccc1N(CC(=O)NCCSCc1ccco1)S(C)(=O)=O	inconclusive: 18.4 µM [cytotoxic, single point]	
O=C(Nc1nccs1)C1CCCCN1S(=O)(=O)c1ccccc1 (stereo unspecified)	inconclusive: 20.6 µM [cytotoxic, partial curve]	
CCCCNc1nc(Cl)nc(Nc2ccc(C)cc2)n1		inactive: -0.995%
C=CCOc1ccccc1CNCc1ccc(F)cc1	inconclusive: 20.6 µM [cytotoxic, partial curve, poor fit]	
COc1ccc(C2C(C#N)=C(N)Oc3c2oc(CO)cc3=O)cc1 (stereo unspecified)		inactive: 7.41%
Cc1ccc2c(c1)[C@H]1[C@H](CO2)[C@H](c2ccccc2)[C@]2(C)C(=O)Nc3ccccc3C(=O)N12	inconclusive: 23.1 µM [cytotoxic, single point]	
CC(C)CC(NS(=O)(=O)OCC(Cl)(Cl)Cl)c1ccccc1 (stereo unspecified)	active: 23.1 µM	
COc1ccccc1-c1cc2nc(C)c(CCC(=O)NCCc3cccc(C)c3)c(C)n2n1		inactive: -0.693%
COc1cc(C(=O)N/N=C/c2sc(=O)n(-c3ccccc3)c2Cl)cc(OC)c1OC	inconclusive: 29.1 µM [cytotoxic, single point]	

Compound	Potency	activity change, negative = cytotoxicity
CC(=O)N1CCN(CC(=O)Nc2ccccc2Sc2ccc(Cl)cc2)CC1	active: 5.8 µM	
Cc1ccc(NC(=O)Cn2cnc3onc(-c4ccc(F)cc4)c3c2=O)c(Cl)c1	inconclusive: 13 µM [cytotoxic, partial curve, poor fit]	
N#Cc1cc(C#N)c(N2CCN(c3ccccn3)CC2)nc1N	inconclusive: 7.08 µM [cytotoxic, partial curve]	
Cc1ccc(S(=O)(=O)C(C#N)c2nc3ccccc3nc2N2CCCC2)cc1C (stereo unspecified)	inconclusive: 35.5 µM [cytotoxic, single point]	
Cc1cccc(NS(=O)(=O)c2cc(C(=O)N3CCc4ccccc4C3)ccc2Cl)c1C	inconclusive: 20.6 µM [cytotoxic, partial curve]	
CC(C)=NNc1ncnc2nc[nH]c12	active: 7.31 µM	
COc1ccc(/C=N/Nc2nc(Nc3ccccc3)nc(N3CCCCC3)n2)cc1OC	inconclusive: 23.1 µM [cytotoxic, single point]	
O=C(CCc1nc2ccccc2c(=O)[nH]1)NNC(=O)c1ccc(Cl)cc1		inactive: 5.51%
CN(C(=O)COC(=O)/C=C/c1ccc2ccccc2n1)C1CCS(=O)(=O)C1 (stereo unspecified)	inconclusive: 20.6 µM [rising, single point]	
CCSc1nnc(NC(=O)C2(C)Cc3ccccc3C(=O)O2)s1 (stereo unspecified)	inconclusive: 18.4 µM [cytotoxic, single point]	
CCCCNC(=O)C(=O)Nc1cc2c3c(c1)CCC(=O)N3CCC2	inconclusive: 32.6 µM [rising, single point]	
CCO[C@@H]1OC(C(=O)NCc2nc3ccccc3[nH]2)=C[C@H](c2ccc(C(F)(F)F)cc2)[C@H]1CCCO		inactive: -0.768%
COCCCn1c(=O)c2sccc2n2c(CCCC(=O)N3CCN(c4ccccn4)CC3)nnc12	inconclusive: 29.1 µM [rising, single point]	
CCN(CC)C(=O)Oc1ccc2cc(Br)ccc2c1		inactive: -3.28%
O=C(O)CCCN=CC1=C(O)C(C(=O)c2ccccc2)CCC1=O (stereo unspecified)	inconclusive: 16.4 µM [rising, partial curve, poor fit]	
Cc1cc(C)nc(Nc2nc(C(N)c3ccccc3)cs2)n1 (stereo unspecified)	inconclusive: 29.1 µM [cytotoxic, single point]	
CC(C)n1nc(C(=O)Nc2ccccc2N2CCOCC2)c2ccccc2c1=O	active: 3.66 µM	
O=C(Nc1nnc(-c2ccco2)o1)c1ccc([N+](=O)[O-])s1	inconclusive: 2.59 µM [cytotoxic, full curve]	
Cc1ccc(C)c(OCc2nnc(N)s2)c1		inactive: 19.3%
O=C(NNc1nc2ccc(F)cc2s1)c1cccc(F)c1		inactive: -22.9%
O=C(CCn1cnc2ccccc21)N/N=C/c1ccc(O)cc1		inactive: 13%
Cc1cc(C)cc(NC(=O)c2ccc([N+](=O)[O-])o2)c1	active: 13 µM	
CC(On1nnc2ccc(S(=O)(=O)N3CCOCC3)cc21)C(=O)Nc1ccccc1F (stereo unspecified)	inconclusive: 29.1 µM [cytotoxic, single point]	
